From paper PMC12866828
Results are given in words; binding and its absence hold for the method and conditions named. In cells and extracts the contact can be indirect. Some binding calls cover weakened binding; strength is not graded here. For some assays here: Tags and fused reporters may be left off the sequences shown.

By UniProt entry, the sequences of proteins in these tests, tags left out. Where a name states a change or a piece, a line headed by the entry shows the natural chain unless it says otherwise. Residues count along the entry.
UniProt P50592: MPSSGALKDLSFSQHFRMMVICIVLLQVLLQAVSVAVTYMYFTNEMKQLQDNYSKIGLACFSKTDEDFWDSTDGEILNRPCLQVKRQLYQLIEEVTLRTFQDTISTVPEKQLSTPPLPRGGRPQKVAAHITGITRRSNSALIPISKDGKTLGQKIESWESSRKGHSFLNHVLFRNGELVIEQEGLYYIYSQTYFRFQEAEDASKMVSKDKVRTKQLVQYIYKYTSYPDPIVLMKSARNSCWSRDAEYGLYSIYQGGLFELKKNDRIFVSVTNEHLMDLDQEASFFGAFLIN
truncated HA‐TRAIL, aa 1‐126: residues 1-126 of P50592
UniProt Q9DBY1: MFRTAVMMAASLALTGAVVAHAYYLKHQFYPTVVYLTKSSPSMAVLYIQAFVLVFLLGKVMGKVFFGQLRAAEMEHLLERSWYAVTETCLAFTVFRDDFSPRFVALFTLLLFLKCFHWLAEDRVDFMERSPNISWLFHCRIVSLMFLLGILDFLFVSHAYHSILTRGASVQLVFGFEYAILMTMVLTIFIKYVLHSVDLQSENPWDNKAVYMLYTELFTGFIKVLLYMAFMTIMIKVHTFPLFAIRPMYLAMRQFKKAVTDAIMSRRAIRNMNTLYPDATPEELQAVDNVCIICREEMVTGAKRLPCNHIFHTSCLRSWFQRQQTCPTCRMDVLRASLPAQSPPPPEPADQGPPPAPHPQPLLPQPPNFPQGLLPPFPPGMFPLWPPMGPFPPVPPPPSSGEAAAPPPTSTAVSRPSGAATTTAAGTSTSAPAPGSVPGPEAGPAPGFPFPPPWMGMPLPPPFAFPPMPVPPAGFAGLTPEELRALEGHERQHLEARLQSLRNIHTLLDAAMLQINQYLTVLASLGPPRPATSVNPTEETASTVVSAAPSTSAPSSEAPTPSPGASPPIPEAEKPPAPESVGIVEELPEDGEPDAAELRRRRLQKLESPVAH

Assays:
[1] = biological target: Tumor necrosis factor (TNF)‐related apoptosis‐inducing ligand (TRAIL) (mouse (endogenous in MLE-12)) (UniProt P50592); experiment: co-IP; cells in IP lysis buffer; supernatants with protein A/G agarose beads and antibodies at 4 °C overnight; washed with NaCl buffer; immunoblot; cells with or without irradiation or TMEM131 knockdown
[2] = biological target: truncated HA‐TRAIL, aa 1‐126 (UniProt P50592); experiment: co-IP; flag-TMEM131 and HA-TRAIL, each full length or truncated, expressed from plasmids; immunoblot; cells not given
HA‐TRAIL, full length = HA‐TRAIL, full length (UniProt P50592); experiment: as above

Molecule | binding [1] | other results
E3 ubiquitin ligase HMG‐CoA reductase degradation protein 1 (HRD1) (from UniProt Q9DBY1 1-612) (enzyme) | binds | –
TMEM131 (from UniProt O70472 21-1877) | binds | –
flag‐TMEM131, full length (from UniProt O70472 21-1877) | – | binding [2]: binds
truncated flag‐TMEM131, aa 1‐106 (domain or fragment, UniProt O70472 21-106) AGLEPAAGRGGGPRSAAAGLLGALHLVMTLVVAAARAEKEAFIQSESIIEVLRFDDGGLLQTETTLGLGSYQQKSISLYRGNCRPI | – | binding (HA‐TRAIL, full length): binds
ER degradation enhancing mannosidase (EDEM) 2 (protein, UniProt Q8BJT9 22-577) APGPDGTAPDPAHYRERVKAMFYHAYDSYLENAFPYDELRPLTCDGHDTWGSFSLTLIDALDTLLILGNTSEFQRVVEVLQDNVDFDIDVNASVFETNIRVVGGLLSAHLLSKKAGVEVEAGWPCSGPLLRMAEEAARKLLPAFQTPTGMPYGTVNLLHGVNPGETPVTCTAGIGTFIVEFATLSSLTGDPVFEDVARVALMRLWESRSDIGLVGNHIDVLTGKWVAQDAGIGAGVDSYFEYLVKGAILLQDKKLMAMFLEYNKAIRNYTHFDDWYLWVQMYKGTVSMPVFQSLEAYWPGLQSLIGDIDNAMRTFLNYYTVWKQFGGLPEFYNIPQGYTVEKREGYPLRPELIESAMYLYRATGDPTLLELGRDAVESIEKISKVECGFATIKDLRDHKLDNRMESFFLAETVKYLYLLFHPNNFIHNNGSTFDSVMTPHGECILGAGGYIFNTEAHPIDPAALHCCRRLKEEQWEVEDLIKEFYSLKQSRPKRAQRKTVRSGPWEPQSGPATLSSPANQPREKQPAQQRTPLLSCPSQPFTSKLALLGQVFLDSS | binds | –
